Results deposited as PubChem BioAssay AID652259 (Drosophila RNAi Screening Center, 2013)

Screen: 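Genome-wide hunt for genes that control Wingless pathway activity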 (primary screen)
Cells: Drosophila clone 8 imaginal disc epithelial cells
Knock-down reagent: long dsRNA against Drosophila genes
Challenge: pathway stimulated by co-transfected Wingless expression plasmid
Detection: 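Dual luciferase reads per well after Wingless plasmid stimulation: reporter firefly light and Renilla control light; activity is firefly divided by Renilla, a ratio not deposited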
Scale: firefly reporter light: higher = more Wg reporter light, before normalisation; Renilla control light: higher = more transfected or surviving cells
Active means: 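Strong candidates differ from their plate mean by at least two out of four per-plate statistical tests; weak candidates meet just one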
Calls: active = candidate regulator (raises or lowers reporter); inactive = not a candidate
The deposit covers about 22,000 reagents; below is a random part of those with a known target gene and a result. Over the whole deposit, 233 (1.1%) were called active. 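Light values are raw, unnormalised plate reads; the ratio scores behind the reporter calls were not deposited.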 Names joined by + are all predicted targets of the reagent. Not given: the amount of reagent, the time to read-out, the dose of the treatment.

| gene knocked down | DRSC id | reporter change call, replicate 1 | firefly reporter light, replicate 1 | firefly reporter light, replicate 2 | Renilla control light, replicate 1 | Renilla control light, replicate 2 | activity call |
| --- | --- | --- | --- | --- | --- | --- | --- |
| AspRS | DRSC05914 | – | 9392 | – | 2648 | – | inactive |
| CG32213 + CG12519 + 825-Oak + 1 more | DRSC09615 | – | 3600 | – | 1650 | – | inactive |
| CG12020 | DRSC08226 | – | 5289 | – | 2534 | – | inactive |
| fj | DRSC07619 | – | 6321 | – | 2740 | – | inactive |
| CG42319 | DRSC06645 | – | 5316 | – | 2919 | – | inactive |
| CG42319 | DRSC06646 | – | 4320 | – | 2130 | – | inactive |
| CG42319 | DRSC22426 | – | 6.83e5 | 6.00e5 | 2.74e5 | 1.98e5 | inactive |
| thoc6 | DRSC10528 | – | 4330 | – | 1817 | – | inactive |
| CG42383 | DRSC21733 | – | 3.73e5 | 4.14e5 | 2.00e5 | 1.39e5 | inactive |
| Adk2 | DRSC09827 | – | 4049 | – | 1924 | – | inactive |
| Sec13 | DRSC14144 | – | 3164 | 9092 | 1277 | 1798 | inactive |
| vanin-like | DRSC17440 | – | 2612 | – | 1010 | – | inactive |
| Grx3 | DRSC02966 | – | 11085 | – | 3477 | – | inactive |
| rpk | DRSC12386 | – | 10768 | – | 3339 | – | inactive |
| rpk | DRSC21656 | – | 3.92e5 | 3.91e5 | 1.86e5 | 1.65e5 | inactive |
| brk | DRSC18745 | – | 11939 | – | 3717 | – | inactive |
| CG15213 | DRSC10213 | – | 1265 | 14452 | 1017 | 4077 | inactive |
| nAChRbeta1 | DRSC08097 | – | 3026 | – | 1920 | – | inactive |
| nAChRbeta1 | DRSC08728 | – | 5981 | – | 2947 | – | inactive |
| CG34006 (retired record) | DRSC13817 | – | 3431 | – | 1936 | – | inactive |
| CG6621 | DRSC16076 | – | 4636 | – | 2098 | – | inactive |
| CG33257 | DRSC09917 | – | 5600 | – | 2201 | – | inactive |
| CG34375 | DRSC14684 | – | 22233 | – | 17291 | – | inactive |
| CG34375 | DRSC14685 | – | 26832 | – | 12745 | – | inactive |
| CG32579 | DRSC19872 | – | 21056 | – | 9712 | – | inactive |
| CG17652 | DRSC00511 | – | 4130 | 8504 | 1448 | 3584 | inactive |
| CG13196 | DRSC06321 | – | 8313 | – | 2455 | – | inactive |
| cdi | DRSC16922 | – | 2354 | 7495 | 736 | 2389 | inactive |
| CG5819 | DRSC04520 | – | 2215 | 5652 | 641 | 3474 | inactive |
| CG34203 | DRSC03855 | – | 17659 | – | 8656 | – | inactive |
| DCAF12 | DRSC15475 | – | 4456 | – | 2101 | – | inactive |
| CAH4 | DRSC22433 | – | 7.16e5 | 7.81e5 | 3.44e5 | 3.45e5 | inactive |
| Cad88C | DRSC15486 | – | 8032 | – | 1760 | – | inactive |
| Ugt35E2 | DRSC16083 | – | 14605 | – | 4402 | – | inactive |
| Ccp84Af | DRSC12591 | – | 10898 | – | 2970 | – | inactive |
| Rga + asRNA:ASTR | DRSC12364 | – | 18657 | – | 2660 | – | inactive |
| mod(mdg4) + pre-mod(mdg4)-Z + pre-mod(mdg4)-T | DRSC13477 | – | 1828 | – | 1001 | – | inactive |
| mod(mdg4) + pre-mod(mdg4)-Z + pre-mod(mdg4)-T | DRSC17001 | – | 38872 | – | 7761 | – | inactive |
| CG32259 | DRSC08082 | – | 2235 | – | 1412 | – | inactive |
| Ca-alpha1T | DRSC17842 | – | 14553 | – | 8355 | – | inactive |
| Ca-alpha1T | DRSC18103 | – | 24875 | – | 13841 | – | inactive |
| Ca-alpha1T | DRSC18356 | – | 14598 | – | 5424 | – | inactive |
| Ca-alpha1T | DRSC18357 | – | 15884 | – | 7922 | – | inactive |
| Ca-alpha1T | DRSC21430 | – | 2.70e5 | 3.63e5 | 1.44e5 | 1.37e5 | inactive |
| CG40006 | DRSC03787 | – | 12304 | – | 8022 | – | inactive |
| CG40006 | DRSC03809 | – | 20228 | – | 11894 | – | inactive |
| CG40006 | DRSC03814 | – | 15962 | – | 9264 | – | inactive |
| CG40006 | DRSC03817 | – | 18103 | – | 10193 | – | inactive |
| Cyp6d2 | DRSC04606 | – | 2820 | 9664 | 813 | 4049 | inactive |
| robo3 | DRSC00374 | – | 2284 | 6003 | 860 | 2678 | inactive |
| robo3 | DRSC00375 | – | 2797 | 6612 | 720 | 1920 | inactive |
| robo3 | DRSC00684 | – | 2694 | 10089 | 1099 | 3104 | inactive |
| CG4598 | DRSC02763 | – | 2656 | 3778 | 756 | 1933 | inactive |
| beta4GalT7 | DRSC14385 | – | 17664 | – | 15216 | – | inactive |
| CG33098 | DRSC22903 | – | 4.91e5 | 5.66e5 | 1.95e5 | 1.77e5 | inactive |
| CG11192 | DRSC06057 | – | 5908 | – | 1840 | – | inactive |
| Bhmt | DRSC02079 | – | 1659 | 7842 | 436 | 2074 | inactive |
| CG12725 | DRSC19501 | – | 20788 | – | 12308 | – | inactive |
| Vps25 | DRSC06486 | – | 4073 | 9959 | 813 | 2321 | inactive |
| Rdl | DRSC08967 | – | 3552 | – | 2038 | – | inactive |
| Rdl | DRSC11264 | – | 5319 | – | 2323 | – | inactive |
| Lgr1 | DRSC16675 | – | 10754 | – | 1504 | – | inactive |
| Nubpl | DRSC03725 | – | 9701 | – | 2824 | – | inactive |
| Chchd3 | DRSC16981 | – | 7276 | – | 2167 | – | inactive |
| CrebB | DRSC20232 | – | 23585 | – | 8000 | – | inactive |
| CG13837 | DRSC14687 | – | 22646 | – | 19498 | – | inactive |
| Fum3 | DRSC10592 | – | 6397 | – | 3714 | – | inactive |
| CG13738 | DRSC10065 | – | 5877 | – | 1028 | – | inactive |
| Meics | DRSC11413 | Wg reporter activity lowered | 2172 | – | 1837 | – | active |
| Inx2 | DRSC18783 | – | 2763 | 7570 | 1042 | 2365 | inactive |
| mRpL19 | DRSC16367 | – | 19019 | – | 6173 | – | inactive |
| mRpL19 | DRSC21618 | – | 6.61e5 | 7.14e5 | 4.90e5 | 3.47e5 | inactive |
| CG34430 | DRSC06499 | – | 2714 | 10268 | 669 | 3041 | inactive |
| ssp3 | DRSC02669 | – | 2188 | 6952 | 525 | 3212 | inactive |
| ssp3 | DRSC02670 | – | 1606 | 6080 | 864 | 3680 | inactive |
| RluA-2 | DRSC02939 | – | 7104 | – | 2592 | – | inactive |
| Tmtc1 | DRSC00147 | – | 18323 | – | 7136 | – | inactive |
| Tmtc1 | DRSC00151 | – | 21715 | – | 8084 | – | inactive |
| Tmtc1 | DRSC00314 | – | 3188 | 6205 | 1387 | 2137 | inactive |
| Tmtc1 | DRSC00411 | – | 2860 | 7013 | 1115 | 2666 | inactive |
| Arts + Apl | DRSC10349 | – | 9107 | – | 3968 | – | inactive |
| TwdlZ | DRSC19154 | – | 5376 | – | 1696 | – | inactive |
| CG6503 | DRSC16056 | – | 25865 | – | 24816 | – | inactive |
| CG4229 | DRSC10407 | – | 3917 | – | 1624 | – | inactive |
| CG3663 | DRSC04402 | – | 14281 | – | 4082 | – | inactive |
| Gug | DRSC11179 | – | 2067 | 5408 | 1305 | 3104 | inactive |
| HisT | DRSC05051 | – | 15092 | – | 6496 | – | inactive |
| HisT | DRSC05052 | – | 20860 | – | 8614 | – | inactive |
| HisT | DRSC06405 | – | 14886 | – | 1408 | – | inactive |
| wcd | DRSC07051 | – | 14039 | – | 5922 | – | inactive |
| CG4586 | DRSC18373 | – | 3408 | 8611 | 1106 | 2470 | inactive |
| qless | DRSC15103 | – | 7000 | – | 2992 | – | inactive |
| qless | DRSC15507 | – | 6896 | – | 2864 | – | inactive |
